Library screen at single concentrations

Chains of the proteins cited; added tags and fusions are not shown.
UniProt P9WFT3, whole entry: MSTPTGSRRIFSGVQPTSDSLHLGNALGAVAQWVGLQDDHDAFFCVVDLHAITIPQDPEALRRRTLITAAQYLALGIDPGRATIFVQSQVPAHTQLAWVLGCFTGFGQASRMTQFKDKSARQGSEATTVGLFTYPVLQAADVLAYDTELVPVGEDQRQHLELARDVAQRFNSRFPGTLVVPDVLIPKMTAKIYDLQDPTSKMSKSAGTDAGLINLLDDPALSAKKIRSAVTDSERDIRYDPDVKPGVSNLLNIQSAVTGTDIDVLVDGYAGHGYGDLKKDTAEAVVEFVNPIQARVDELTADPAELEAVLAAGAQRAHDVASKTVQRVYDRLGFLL
UniProt P9WNZ1, whole entry: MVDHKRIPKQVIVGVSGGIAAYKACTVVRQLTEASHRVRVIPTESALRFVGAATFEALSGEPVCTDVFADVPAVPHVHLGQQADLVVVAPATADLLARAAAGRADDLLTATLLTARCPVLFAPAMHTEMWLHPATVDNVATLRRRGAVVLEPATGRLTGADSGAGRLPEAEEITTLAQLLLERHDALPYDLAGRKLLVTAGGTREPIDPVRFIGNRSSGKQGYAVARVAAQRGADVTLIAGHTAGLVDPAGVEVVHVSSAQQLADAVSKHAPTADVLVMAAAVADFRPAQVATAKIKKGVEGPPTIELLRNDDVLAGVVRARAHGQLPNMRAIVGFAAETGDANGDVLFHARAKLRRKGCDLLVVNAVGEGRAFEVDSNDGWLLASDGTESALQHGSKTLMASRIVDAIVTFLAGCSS

Measurements from “University of Dundee, Small-Polar-MMV Screening Library” (2021), ChEMBL document CHEMBL3988442.

MtTrpRS: 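Tryptophan-tRNA ligase, Mycobacterium tuberculosis (UniProt P9WFT3). Enzyme assay of tryptophanyl-tRNA synthetase; the read-out is not stated. Tested at 10 µM. Higher most likely means stronger inhibition; the record gives no direction and few retests gave an IC50. Size under these conditions: about 65,000 compounds, about 64 of them at 50% or above in at least one test.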
CoaBC: 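Coenzyme A biosynthesis protein CoaBC, Mycobacterium tuberculosis (UniProt P9WNZ1). Enzyme assay of CoaBC with a phosphate dye (Biomol Green) read at 650 nm. Concentration: 30 µM. Higher reads as stronger inhibition, judged from the few compounds that gave an IC50. Most strong results did not repeat in a second test. Of about 67,000 compounds tested this way, about 40 (0.06%) reached 50% or more in at least one test.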

Results are given as percent effect.
The record does not define 0% and 100%; most values in the screen are far below 50% and negative numbers occur (in some assays of this library far below -100).
The compounds are a random part of those screened.
Two or more numbers in one place are separate tests of the same structure; such repeats can differ widely.
A dash means the value is not listed here; it may have been measured.

compound,MtTrpRS,CoaBC
NC(=O)c1ccnc(N2CCCC(CO)(Cc3ccccc3)C2)c1 (stereo not given),-0.07127,-7.351
Cc1cc(CN2CCC(CNC(=O)Cc3ccc(F)cc3)C2)[nH]n1 (stereo not given),2.124,13.08
Cc1nc(C)c(C(=O)N2Cc3ccccc3OCC2Cn2ccnc2)o1 (stereo not given),0.2114,-9.223
Cc1cc(C(=O)N2CCCC2)ccc1NS(C)(=O)=O,-0.2174,1.086
CCOC(=O)c1cnn(-c2cc(Oc3cc(C)ccc3C)ncn2)c1N,-1.508,-2.89
CCN1N=C(C(=O)N2CCCC(c3noc(C)n3)C2)CCC1=O (stereo not given),1.325,4.756
CC1CCc2nn(CCNC(=O)c3cccs3)c(=O)cc2C1 (stereo not given),10.56,-9.202
CCc1c(C)nn(CCNC(=O)c2cc(C3CC3)n[nH]2)c1C,-1.19,3.636
N#Cc1ccc(C(=O)N2C[C@@H](CN3CCCC3)C[C@H](CO)C2)cc1,-0.8835,3.1
CCc1nc(CN2CCCN(Cc3cnn(C)c3)CC2)no1,-6.058,-23.67
Cc1csc(CN2CCC[C@]3(C[C@H](Oc4ccccn4)CO3)C2)n1,3.372,13.76 & 25.16
CC(C)CNC(=O)CC1OCCc2ccsc21 (stereo not given),-3.631,1.768
CN(C)C[C@@H]1CN(C(=O)Cc2ccccc2)C[C@@H]1CO,0.315,0.5115
COc1ccc(OC)c(CNc2c(O)c(=O)c2=O)c1,4.84,3.291
O=S(=O)(NCC(O)c1ccoc1)c1ccc(Br)s1 (stereo not given),-0.4944,1.788
CCn1cc2c(n1)C(COC)CN(C(=O)CCOc1ccccc1)C2 (stereo not given),0.6975,1.261
O=C(CCC1CCN(C2CCSCC2)CC1)NCC1CCCO1 (stereo not given),-0.768,15.98 & 28.7
O=C(N[C@@H]1CN(Cc2ccco2)[C@@H]2CCCO[C@@H]21)c1cscn1,-,1.235
CC(C)(C)C(=O)N1C[C@H](c2ccsc2)[C@H]2CN(C3CCCCC3)CC[C@H]21,-4.137,6.527
Cc1ccc(C)c2c(C)c(C(=O)NCCCn3cnnc3)[nH]c12,-3.266,3.609
CCN1CCN(C[C@@H]2CN(c3ncc(Cl)cc3Cl)C[C@@H]2CO)CC1,4.294,-0.2484
Cc1cnn(CC2CCCN2CCc2nc3ccccc3c(=O)[nH]2)c1 (stereo not given),2.282,0.7712
O=C(c1cccs1)N1CCCn2c(nc(CN3CCCC3)cc2=O)C1,5.533,-0.3257
CCc1nnc(CNc2ccc(CC(=O)N3CCSCC3)cc2)o1,15.37,10.92
CC(C)n1cnc(-c2nc(C(=O)N3CCCC3)c3ccccn23)c1,1.953,6.515
CN(Cc1ccccc1C(F)(F)F)C(C(N)=O)c1ccccc1 (stereo not given),0.8997,2.689
COc1cc(CNCCn2cccn2)c2c(c1)CC(C)O2 (stereo not given),10.67,9.295
CCC(c1ccccc1)c1nn2c(CN(CC)CC)nnc2s1 (stereo not given),3.344,1.79
CCN1CCN(C(=O)NCc2cc[nH]n2)CC1,0.807,0.3831
Cn1cnc2c1C(COCc1cccnc1)N(Cc1nccs1)CC2 (stereo not given),-1.58,-2.258
C=C(C)CNC(=O)C1CCCN(C2CCN(C(C)C)CC2)C1 (stereo not given),-3.924,-1.44
CC(C)(C)c1ncc2c(n1)CN(C(=O)C(C)(C)n1cccc1)C2,-2.464,17.29
Cc1ccc(Cl)cc1NC(=O)C1CSc2ncc(C)c(=O)n2C1 (stereo not given),3.072,1.018
O=C(NCCc1ccc(Cl)s1)NCc1nnc2n1CCC2,-0.6823,4.841
CC(=O)c1ccc(NC(=O)C(NC(=O)Nc2ccccc2)C(C)C)cc1 (stereo not given),-1.455,5.569
NC(=O)c1ccc(-n2ccnc2C2CC2)cc1N1CCCC1,1.486,4.72
O=C(NCCc1ccccn1)NC1CCN(c2ccccc2)C1=O (stereo not given),2.971,3.121
Cc1noc(CN2CCN(C(=O)N(C)C)CC2)n1,-3.438,1.575
CC(C)c1noc(CCCC(=O)Nc2cccc(F)c2)n1,-1.248,4.206
O=C(c1csnn1)N1CCCC(n2cncn2)C1 (stereo not given),17.65,2.857
COCCNC(=O)Cn1c(-c2cccc(F)c2)nc(C)c(CCO)c1=O,0.1897,0.2421
Cc1ccc(C(=O)NC(CN2CCCC2=O)c2ccccc2)c(=O)[nH]1 (stereo not given),0.9266,-6.61
O=C(c1ccc(OCC2CC2)nc1)N1CCCC(n2cncn2)C1 (stereo not given),0.5197,3.886
Cc1noc(C)c1CN1CCO[C@H]2CN(Cc3cccc(F)c3)C[C@H]21,-,1.485
COCCCNC(=O)CN(C)C(=O)c1cc(C)sc1C,-2.041,9.106
CN(C(=O)CN1CCCC1c1cnn(C)c1)C1(C#N)CCCCC1 (stereo not given),1.018,1.222
COc1ccc2c(c1)CCN(Cc1cscn1)CC2,-1.417,2.302
CCN1CCC2(CC1)CC(NCc1cccc(C)n1)c1ccccc1O2 (stereo not given),-0.1383,6.516
CCC(C)Oc1cc(C(=O)Nc2nccs2)ccn1 (stereo not given),0.7807,4.305
CC(C)CCn1[nH]c(CNc2ccccc2)nc1=O,-3.919,4.184
Cc1nc(C2CCCN2CCCS(=O)(=O)c2ccccc2)no1 (stereo not given),-4.278,2.105
CN(C)S(=O)(=O)Nc1ccc(-n2nncc2C(F)(F)F)cc1,-0.9166,-2.764
CC(C)CC(CNC(=O)c1cccnc1Oc1cccnc1)N(C)C (stereo not given),-1.175,2.445
CCO[C@@H]1CCN(C(=O)c2ccc[nH]2)[C@@H]1Cc1cnn(C)c1,3.877,5.699
COCc1cc(N2CCOC(c3ccc(Cl)cc3)C2)ncn1 (stereo not given),-1.22,-1.077
Cn1cc(C2CCCN2C(=O)CCc2cnn(-c3ccccc3)c2)cn1 (stereo not given),-0.2952,4.337
COc1ccc(-c2noc(C(N)CCSC)n2)cc1OC (stereo not given),-0.1942,-5.301
O=C(c1cccnc1)C1CCCN(c2nnc(C3CC3)o2)C1 (stereo not given),4.095,0
COC(=O)c1ccc(Cl)c(S(=O)(=O)Nc2ccc(F)c(C(N)=O)c2)c1,-1.845,8.293
CC(C)c1noc(CCC(=O)N2CCN(Cc3ccncc3)CC2)n1,-8.678,4.847
COc1ncccc1CNC(=O)c1csc(Br)c1,-0.6606,-0.4969
Cc1nc(C)n(CC2CCCN2CCCc2ccccc2)n1 (stereo not given),-1.782,5.33
O=C(C1CC1)N1CCC(Nc2nc(O)cc(-c3ccsc3)n2)CC1,-3.897,-3.881
Cc1nc(N2CCCC2)nc2c1CN(C(=O)c1ccco1)CC2,-5.307,3.893
Cc1cc(C(=O)N2CCNC(=O)C2)c(C)n1Cc1ccccn1,-3.536,7.239
CCOC1CCN(C(=O)CN(C)c2cnccn2)CC1,-0.2903,8.842
O=C(Nc1ccc(Cl)cn1)C1CCCN(CCc2ccccn2)C1 (stereo not given),14.41,-14.29
Cc1csc(C2CCCCN2C(=O)CCn2cncn2)n1 (stereo not given),16.47,14.63
COc1cccc([C@@H]2CN(C(=O)c3ccc(C)cc3O)C[C@H]2C(=O)O)c1,-1.844,7.048
Cc1nn(C)c(C)c1C1CCCN1CCCC#N (stereo not given),-2.033,1.873
Cc1ccc(OCCN(C)Cc2cscn2)cc1,7.699,0.4878
Cn1cc(C(=O)N2CCC(c3nccn3Cc3ccncc3)CC2)cn1,4.13,3.257
COc1cc(NCCNC(=O)c2cscc2C)cc(OC)c1,-1.867,0.9828
Cn1cc(C2CCCN2c2ncnc3[nH]ccc23)cn1 (stereo not given),-8.003,-3.64
Cc1nnc(C2CCN(C(=O)c3ccc4nccnc4c3)CC2)s1,4.25,6.622
O=C(NCc1cn2c(n1)CN(Cc1cccnc1)CC2)C1CCC1,10.41,-2.28
CCN1CCC(CC(=O)N2CCc3sc(C(=O)N(C)C)cc3C2)CC1,-1.956,-3.415
c1ccc2oc(CCCN3CCCC3c3noc(C4CC4)n3)nc2c1 (stereo not given),48.45,-6.403
CCCNC(=O)c1cc(C(C)C)nc(N2CCCC2)n1,2.202,6.005
O=S(=O)(N1CCCCC1)N1CCCN(CC2CCCO2)CC1 (stereo not given),0.2427,0.5208
CC(=O)N1CCCC(c2ccc3sc(N)nc3n2)C1 (stereo not given),-,0.7264

Repeated from the top, 5 entries:

{"compound": "NC(=O)c1ccnc(N2CCCC(CO)(Cc3ccccc3)C2)c1", "stereo": "stereo not given", "MtTrpRS": -0.07127, "CoaBC": -7.351}
{"compound": "Cc1cc(CN2CCC(CNC(=O)Cc3ccc(F)cc3)C2)[nH]n1", "stereo": "stereo not given", "MtTrpRS": 2.124, "CoaBC": 13.08}
{"compound": "Cc1nc(C)c(C(=O)N2Cc3ccccc3OCC2Cn2ccnc2)o1", "stereo": "stereo not given", "MtTrpRS": 0.2114, "CoaBC": -9.223}
{"compound": "Cc1cc(C(=O)N2CCCC2)ccc1NS(C)(=O)=O", "MtTrpRS": -0.2174, "CoaBC": 1.086}
{"compound": "CCOC(=O)c1cnn(-c2cc(Oc3cc(C)ccc3C)ncn2)c1N", "MtTrpRS": -1.508, "CoaBC": -2.89}